Data as given in PubChem BioAssay AID1259300 (Sanger Institute, 2017)
Purpose: 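Which knock-downs harm HCT15 alone or synergise with the drugs BYL719, cetuximab or trametinib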 (primary screen). Cell system: HCT15 colorectal cancer cells. Reagent: siRNA pool against human genes. Challenge: anchor drug or DMSO vehicle added 24 h after seeding: BYL719 1 µM, cetuximab 5 µg/ml, trametinib 10 nM; drug doses chosen to barely affect viability alone. Measured: 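Cell viability after knock-down, as fraction of non-targeting pool wells averaged over replicates, plus robust z-score for knock-down alone; synergy score per drug (BYL719 1 µM, cetuximab 5 µg/ml, trametinib 10 nM)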. Scale: viability z-score, siRNA alone: higher = more viable cells after knock-down; viability vs non-targeting, siRNA alone: higher = more viable cells; synergy score with BYL719 and synergy score with cetuximab and synergy score with trametinib: higher = stronger synergy of knock-down with drug. Call rule: 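Called active (essential) if viability z-score with knock-down alone falls below -3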. Calls: active = essential: knock-down alone lowers viability (z below -3); inactive = no strong viability loss with knock-down alone.
This is one part, drawn at random, of 794 reagents tested. 18 of all reagents (2.3%) count as active. 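Calls rest on knock-down alone, not drug synergy; depositor treated synergy scores above 0.15 as synergistic; drug doses alone had little viability effect.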 A number with no mark means an inactive call. No viability above 1 is reported: the scale is capped. Reagent sequences are not shown. The record does not give: the amount of reagent, the time to read-out.

target,"viability z-score, siRNA alone","viability vs non-targeting, siRNA alone",synergy score with BYL719,synergy score with cetuximab,synergy score with trametinib
ADPGK,0.58,0.997,0.111,0.0794,0.0642
RIPK2,0.625,1,0.267,0.184,-0.012
KALRN,0.625,1,0.0823,0.139,-0.00923
EPHB2,0.625,1,-0.0374,0.0415,-0.0562
PDK4,0.339,0.979,0.197,0.0305,0.0676
PKN1,0.625,1,0.12,0.0459,-0.0984
MAPK7,0.625,1,0.147,0,-0.0128
HSPB8,-1.12,0.873,0.0241,0.00639,-0.213
CDK6,0.625,1,0.232,0.172,0.131
IDH2,0.0836,0.961,0.185,0.0542,-0.0358
GALK2,0.308,0.977,0.104,0.0351,0.0803
DDR2,0.0497,0.958,0.0303,0.00124,-0.0672
EXOSC10,0.625,1,0.376,0.102,0.198
SLK,0.566,0.996,-0.0324,0.0217,-0.0686
CHEK2,0.0982,0.962,0.116,0.0953,0.00401
CAMKK2,0.625,1,0.112,0.0744,-0.0807
FGR,0.625,1,0.144,0.197,-0.0115
LIMK1,-0.00148,0.954,0.0794,0.0156,-0.139
CALM2,0.625,1,0.0492,0,-0.0984
CHKA,-1.08,0.876,0.0186,0.0562,0.0219
TRIB1,-0.257,0.936,0.0991,-0.042,0.0671
N4BP2,0.625,1,0.0735,0,-0.0984
NRBP2,-0.118,0.946,0.11,-0.0227,0.0403
PACSIN1,0.625,1,0.176,0.132,0.0204
DGUOK,0.29,0.976,0.411,0.0718,0.0427
TJP2,0.625,1,0.241,0.0313,-0.0968
PDGFRA,0.625,1,0.143,0.0583,0.035
SIK3,0.625,1,0.15,0.021,-0.0368
JAK2,0.625,1,-0.0109,0.0173,-0.00303
PIK3CG,-0.424,0.924,0.1,-0.0127,-0.000462
FXN,0.625,1,0.0428,0.0208,-0.0984

Laid out differently: results already given.
target	viability z-score, siRNA alone	viability vs non-targeting, siRNA alone	synergy score with BYL719	synergy score with cetuximab	synergy score with trametinib
CAMKK2	0.625	1	0.112	0.0744	-0.0807
FGR	0.625	1	0.144	0.197	-0.0115
LIMK1	-0.00148	0.954	0.0794	0.0156	-0.139
CALM2	0.625	1	0.0492	0	-0.0984
CHKA	-1.08	0.876	0.0186	0.0562	0.0219
TRIB1	-0.257	0.936	0.0991	-0.042	0.0671

The listing continues:
target,"viability z-score, siRNA alone","viability vs non-targeting, siRNA alone",synergy score with BYL719,synergy score with cetuximab,synergy score with trametinib
MAP3K7,0.625,1,0.135,0.038,-0.0984
PTPRU,-0.117,0.946,0.127,0.0642,-0.135
DLG1,0.609,0.999,0.0691,0.11,-0.0637
TK2,-0.117,0.946,-0.000483,0.101,-0.00104
PFKP,0.625,1,0.0166,0.0964,-0.0984
TP53RK,0.625,1,0.298,0.116,0.0799
LMTK1,0.625,1,0.187,0.182,-0.0984
MAPKAPK5,0.625,1,-0.056,0.0235,-0.0984
LRRK1,0.625,1,0.0341,0,0.0984
MAPK10,0.625,1,0.0683,0.0878,-0.0984
COMMD3,-0.386,0.926,0.164,0.0379,-0.161
PKIB,0.625,1,0.0916,0.0293,-0.0984
GRK5,0.625,1,0.101,0,0.0284
TESK1,0.0536,0.958,0.218,-0.0101,0.00485
ROR2,0.625,1,0.159,0.0134,-0.0981
PIP4K2A,0.625,1,0.159,0.105,-0.0873
NEK4,-0.54,0.915,0.149,-0.0604,-0.157
PDGFRB,0.537,0.994,0.308,0.101,-0.00398
NRBP1,0.625,1,0.169,0.163,0.114
